Source: patent publication US20160195533A1, “METHOD FOR SCREENING EMT INHIBITOR” (Medicinal Bioconvergence Research Center, priority 2015, published 2016)
These are yes or no findings as the source states them, for the method shown. In cells and extracts the contact can be indirect. Some binding calls cover weakened binding; strength is not graded here. Sequences can lack the tags named with a protein. Values belong to the binder of their own block, whether it stands above or below them.

By UniProt entry, the sequences of proteins in these tests, tags left out. Where a name states a change or a piece, a line headed by the entry shows the natural chain unless it says otherwise.
UniProt O95863: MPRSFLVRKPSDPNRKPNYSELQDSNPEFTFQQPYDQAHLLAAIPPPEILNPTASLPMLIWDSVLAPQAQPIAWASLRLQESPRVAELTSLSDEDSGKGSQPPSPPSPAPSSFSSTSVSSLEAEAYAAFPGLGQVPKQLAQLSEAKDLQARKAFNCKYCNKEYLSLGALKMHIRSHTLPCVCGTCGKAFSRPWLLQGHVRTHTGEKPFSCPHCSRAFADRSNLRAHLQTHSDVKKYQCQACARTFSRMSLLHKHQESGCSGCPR

Target: Flag-tagged Snail1 (pCMV-Tag2B N-terminal Flag-tagged Snail1 expression vector, Addgene) (human) (UniProt O95863)
Experiment: Strep pull-down (MagSTREP type 2HC) from co-transfected HEK293T cells, anti-Flag western blot

binding: binds
B1: Strep-tagged ERS-WHEP domain of EPRS (pEXPR-IBA105-ERS) (enzyme, not shown: small tags and cut ends)
chain: MATLSLTVNSGDPPLGALLAVEHVKDDVSISVEEGKENILHVSENVIFTDVNSILRYLARVATTAGLYGSNLMEHTEIDHWLEFSATKLSSCDSFTSTINELNHCLSLRTYLVGNSLSLADLCVWATLKGNAAWQEQLKQKKAPVHVKRWFGFLEAQQAFQSVGTKWDVSTTKARVAPEKKQDVGKFVELPGAEMGKVTVRFPPEASGYLHIGHAKAALLNQHYQVNFKGKLIMRFDDTNPEKEKEDFEKVILEDVAMLHIKPDQFTYTSDHFETIMKYAEKLIQEGKAYVDDTPAEQMKAEREQRIDSKHRKNPIEKNLQMWEEMKKGSQFGQSCCLRAKIDMSSNNGCMRDPTLYRCKIQPHPRTGNKYNVYPTYDFACPIVDSIEGVTHALRTTEYHDRDEQFYWIIEALGIRKPYIWEYSRLNLNNTVLSKRKLTWFVNEGLVDGWDDPRFPTVRGVLRRGMTVEGLKQFIAAQGSSRSVVNMEWDKIWAFNKKVIDPVAPRYVALLKKEVIPVNVPEAQEEMKEVAKHPKNPEVGLKPVWYSPKVFIEGADAETFSEGEMVTFINWGNLNITKIHKNADGKIISLDAKLNLENKDYKKTTKVTWLAETTHALPIPVICVTYEHLITKPVLGKDEDFKQYVNKNSKHEELMLGDPCLKDLKKGDIIQLQRRGFFICDQPYEPVSPYSCKEAPCVLIYIPDGHTKEMPTSGSKEKTKVEATKNETSAPFKERPTPSLNNNCTTSEDSLVLYNRVAVQGDVVRELKAKKAPKEDVDAAVKQLLSLKAEYKEKTGQEYKPGNPPAEIGQNISSNSSASILESKSLYDEVAAQGEVVRKLKAEKSPKAKINEAVECLLSLKAQYKEKTGKEYIPGQPPLSQSSDSSPTRNSEPAGLETPEAKVLFDKVASQGEVVRKLKTEKAPKDQVDIAVQELLQLKAQYKSLIGVEYKPVSATGAEDKDKKKKEKENKSEKQNKPQKQNDGQRKDPSKNQGGGLSSS

binding: binds
B2: Strep-tagged WHEP-PRS domain of EPRS (pEXPR-IBA105-PRS) (enzyme, not shown: small tags and cut ends)
chain: VEATKNETSAPFKERPTPSLNNNCTTSEDSLVLYNRVAVQGDVVRELKAKKAPKEDVDAAVKQLLSLKAEYKEKTGQEYKPGNPPAEIGQNISSNSSASILESKSLYDEVAAQGEVVRKLKAEKSPKAKINEAVECLLSLKAQYKEKTGKEYIPGQPPLSQSSDSSPTRNSEPAGLETPEAKVLFDKVASQGEVVRKLKTEKAPKDQVDIAVQELLQLKAQYKSLIGVEYKPVSATGAEDKDKKKKEKENKSEKQNKPQKQNDGQRKDPSKNQGGGLSSSGAGEGQGPKKQTRLGLEAKKEENLADWYSQVITKSEMIEYHDISGCYILRPWAYAIWEAIKDFFDAEIKKLGVENCYFPMFVSQSALEKEKTHVADFAPEVAWVTRSGKTELAEPIAIRPTSETVMYPAYAKWVQSHRDLPIKLNQWCNVVRWEFKHPQPFLRTREFLWQEGHSAFATMEEAAEEVLQILDLYAQVYEELLAIPVVKGRKTEKEKFAGGDYTTTIEAFISASGRAIQGGTSHHLGQNFSKMFEIVFEDPKIPGEKQFAYQNSWGLTTRTIGVMTMVHGDNMGLVLPPRVACVQVVIIPCGITNALSEEDKEALIAKCNDYRRRLLSVNIRVRADLRDNYSPGWKFNHWELKGVPIRLEVGPRDMKSCQFVAVRRDTGEKLTVAENEAETKLQAILEDIQVTLFTRASEDLKTHMVVANTMEDFQKILDSGKIVQIPFCGEIDCEDWIKKTTARDQDLEPGAPSMGAKSLCIPFKPLCELQPGAKCVCGKNPAKYYTLFGRSY
